Earlier results, collected in US20120021445A1, “Pluripotent Stem Cells for Drug Induced Myopathy and Malignant Hyperthermia” (priority 2010, published 2012).
Some entries share one result that the patent states for a list of compounds.

Conditions: patients receiving the antipsychotic

| Compound | patients that may develop CK elevation |
| --- | --- |
| Cc1cc2c(s1)Nc1ccccc1N=C2N1CCN(C)CC1 [olanzapine] | Up to 10% |
| CN1CCN(C2=Nc3ccccc3Oc3ccc(Cl)cc32)CC1 [loxapine] | Up to 10% |
| Cc1nc2n(c(=O)c1CCN1CCC(c3noc4cc(F)ccc34)CC1)CCCC2 [risperidone] | Up to 10% |
